Data as given in patent US20240293518A1 (HEALTH RESEARCH, published 2024).
No constants are given. Whether binding was seen depends on the method and setting. In cells and extracts the contact can be indirect. Some binding calls cover weakened binding; strength is not graded here. Tags and fused reporters may be left off the sequences shown.

Biological target: ErbB2/ECD-Fc, recombinant chimera of human ErbB2 ECD (Thr23-Thr652) and the Fc fragment of human IgG1 (human) (UniProt P04626)
Assay: pull-down with protein G-sepharose, SDS-PAGE, silver stain; PEPD 0.04, 0.2 or 1 µM with 0.04 µM ErbB2/ECD-Fc

binding: binds
B1: Recombinant human PEPD (peptidase D, prolidase), wild type, 6×His tagged at the carboxy terminus (ligand)
chain: MAAATGPSFWLGNETLKVPLALFALNRQRLCERLRKNPAVQAGSIVVLQGGEETQRYCTDTGVLFLQESFFHWAFGVTEPGCYGVIDVDTGKSTLFVPRLPASHATWMGKIHSKEHFKEKYAVDDVQYVDEIASVLTSQKPSVLLTLRGVNTDSGSVCREASFDGISKFEVNNTILHPEIVESRVFKTDMELEVLRYTNKISSEAHREVMKAVKVGMKEYGLESLFEHYCYSRGGMRHSSYTCICGSGENSAVLHYGHAGAPNDRTIQNGDMCLFDMGGEYYSVASDITCSFPRNGKFTADQKAVYEAVLLSSRAVMGAMKPGDWWPDIDRLADRIHLEELAHMGILSGSVDAMVQAHLGAVFMPHGLGHFLGIDVHDVGGYPEGVERIDEPGLRSLRTARHLQPGMVLTVEPGIYFIDHLLDEALADPARASFLNREVLQRFRGFGGVRIEEDVVVIDSGIELLTCVPRTVEEIEACMAGCDKAFTPFSGPKHHHHHH
notes: Made in bacteria (pBAD/Thio-TOPO, without the N-terminal Thio) and purified on nickel; also called WT-PEPD; rhPEPD
